Assay results published in paper PMC3551927, “Structural Basis of the γ-Lactone-Ring Formation in Ascorbic Acid Biosynthesis by the Senescence Marker Protein-30/Gluconolactonase” (PLoS ONE, 2013).
No constants are given. Whether binding was seen depends on the method and setting.

By UniProt entry, the sequences of proteins in these tests, tags left out.
UniProt Q64374: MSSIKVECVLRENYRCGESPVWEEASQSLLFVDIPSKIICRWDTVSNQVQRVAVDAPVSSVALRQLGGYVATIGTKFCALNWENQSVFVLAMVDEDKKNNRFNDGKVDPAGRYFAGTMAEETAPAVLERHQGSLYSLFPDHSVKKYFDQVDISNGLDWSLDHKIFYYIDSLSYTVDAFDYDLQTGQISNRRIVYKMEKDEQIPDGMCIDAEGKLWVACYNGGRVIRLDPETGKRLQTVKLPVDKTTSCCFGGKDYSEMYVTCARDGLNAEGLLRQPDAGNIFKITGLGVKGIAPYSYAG
UniProt Q15493: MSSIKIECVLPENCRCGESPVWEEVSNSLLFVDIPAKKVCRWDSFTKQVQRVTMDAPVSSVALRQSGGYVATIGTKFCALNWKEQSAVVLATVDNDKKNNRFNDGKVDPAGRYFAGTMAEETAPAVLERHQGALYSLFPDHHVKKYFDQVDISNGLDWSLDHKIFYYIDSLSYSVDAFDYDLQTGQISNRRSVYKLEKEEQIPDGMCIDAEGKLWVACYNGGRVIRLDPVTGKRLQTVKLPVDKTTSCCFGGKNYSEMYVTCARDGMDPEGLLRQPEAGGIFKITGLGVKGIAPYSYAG

Experiments:
[1] = target: mouse senescence marker protein-30/gluconolactonase (SMP30/GNL) (mouse) (UniProt Q64374); assay: SEC-MALS; low-angle laser light scattering combined with gel chromatography on a TSKgel SuperSW2000 column; elution buffer 50 mM HEPES pH 7.5, ionic strength 0.15 mol/L, flow rate 0.2 ml/min; standards ribonuclease A, egg albumin monomer, bovine albumin monomer; both purified
[2] = target: human senescence marker protein-30/gluconolactonase (SMP30/GNL) (human) (UniProt Q15493); assay: as above

Row | binding [1] | binding [2] | Substance
1 | no binding |  | mouse senescence marker protein-30/gluconolactonase (SMP30/GNL) (from UniProt Q64374 1-299) (enzyme)
2 |  | no binding | human senescence marker protein-30/gluconolactonase (SMP30/GNL) (from UniProt Q15493 1-299) (enzyme)
